In patent US7723058B2, “Test system for the determination of in-vivo active hemostasis proteases in biological fluids and/or the usage thereof to determine the in-vivo activation of hemostasis” (priority 2001, dated 2010):
Part of at least one peptide drawing is inferred or uncertain, most often the ends. Where a SMILES comes first, the peptide text is derived from it. [ ]: non-standard residue; d: D form. The star is where a group is joined. dChg = N[C@@H](C(=O)O)C1CCCCC1; pNA = O=[N+]([O-])c1ccc(N*)cc1

Key:
Assay type in all cases: biochemical
[1] = test system: normal EDTA-Plasma (pooled normal plasma); assay: GACA, optimization of the concentration of substrate, normal plasma; conditions: 37° C.
[2] = test system: normal EDTA-Plasma supplemented with bovine thrombin (pathoplasma); assay: GACA, optimization of the concentration of substrate, pathoplasma; conditions: 37° C.
Experimental: Before and after the incubation the extinction at 405 nm was determined.
The ratio of the extinctions of pathoplasma and normal plasma approximates the value of 1 at final substrate concentrations >1.5 mM. The higher this value the more specific is the assays for pathologic activation of hemostasis, here imitated by addition of 120 mlU/ml bovine thrombin. This ratio reaches maximal values at final substrate concentrations ≦1 mM. However, the maximal change in extinction decreases at low substrate concentrations, especially at substrate concentrations below 0.3 mM, i.e. substrate exhaustion occurs. Therefore the final substrate concentration in the GACA should be between 0.3 mM and 1.0 mM, preferentially between 0.5 mM and 0.8 mM, particularly at 0.56 mM. At this final substrate concentration the assay is very specific for activation of hemostasis, and consequently the determination of CPC (approach B) can be neglected where appropriate. Thus, the GACA-value corresponds to the uGACA-value at a final substrate concentration of up to 0.8 mM, i.e. GACA=approach A (without correction is by approach B). After addition of thrombin to EDTA-plasma 90% of thrombin is inactivated, in the GACA only 10% of the added enzyme activity can be detected.

bovine thrombin = molecular target: T1, bovine thrombin (Bos taurus, UniProt P00735); assay: Determination of the Km-value for thrombin in plasma; conditions: thrombin in plasma after addition of 120 mlU/ml thrombin; 37° C.
T1 construct: activity of thrombin in plasma after addition of 120 mlU/ml thrombin (F IIa); purchased DadeBehring
Experimental: 1. Normal EDTA-plasma with 250 mM arginine, pH 8.7, and 2. normal EDTA-plasma, supplemented with 120 mlU/ml bovine thrombin and 30 min thereafter with 250 mM arginine, pH 8.7, were incubated with 50 μl HD-CHG-Ala-Arg-pNA (0-6.67 mM final) in aqua dest, Delta A/3 h (37° C.) was measured and the value of 1. was subtracted from the value of 2. The resulting difference corresponds to the activity of thrombin in plasma after addition of 120 mlU/ml thrombin (F IIa). Result the maximal enzyme velocity is 800 mA/3 h the substrate concentration at halfmaximal velocity (Km-value) is 0.3 mM.

[3] = test system: plasma samples of example 3; assay: Exhaustion of substrate (incubation increased to 24 h)
[4] = final conc. of substrate 0.095 mM
[5] = final conc. of substrate 0.19 mM
[6] = final conc. of substrate 0.28 mM
[7] = final conc. of substrate 0.37 mM
[8] = final conc. of substrate 0.41 mM
[9] = final conc. of substrate 0.45 mM
[10] = final conc. of substrate 0.5 mM
[11] = final conc. of substrate 0.55 mM
[12] = final conc. of substrate 0.61 mM
[13] = final conc. of substrate 0.68 mM
[14] = final conc. of substrate 0.76 mM
[15] = final conc. of substrate 0.84 mM
[16] = final conc. of substrate 0.94 mM
[17] = final conc. of substrate 1.04 mM
[18] = final conc. of substrate 1.19 mM
[19] = final conc. of substrate 1.29 mM
[20] = final conc. of substrate 1.39 mM
[21] = final conc. of substrate 1.58 mM
[22] = final conc. of substrate 1.76 mM
[23] = final conc. of substrate 1.95 mM
[24] = final conc. of substrate 2.18 mM
[25] = final conc. of substrate 2.38 mM
[26] = final conc. of substrate 2.67 mM
[27] = final conc. of substrate 2.97 mM
[28] = final conc. of substrate 3.33 mM
[29] = final conc. of substrate 6.67 mM

With `C[C@H](NC(=O)[C@H](N)C1CCCCC1)C(=O)N[C@@H](CCCNC(=N)N)C(=O)Nc1ccc([N+](=O)[O-])cc1` [HD-CHG-Ala-Arg-pNA, HD-CHG-Ala-Arg-pNA.2AcOH] (H-[dChg]-Ala-Arg-pNA) the “Enz.-act. Normal Plasma” value [1, 4] was 43 mA/2 h, the “Enz.-act. Normal Plasma” value [1, 5] was 78 mA/2 h and the “Enz.-act. Normal Plasma” value [1, 6] was 116 mA/2 h. The “Enz.-act. Normal Plasma” value [1, 7] was 149 mA/2 h, the “Enz.-act. Normal Plasma” value [1, 8] was 165 mA/2 h and the “Enz.-act. Normal Plasma” value [1, 9] was 189 mA/2 h. The “Enz.-act. Normal Plasma” value [1, 10] was 210 mA/2 h, the “Enz.-act. Normal Plasma” value [1, 11] was 233 mA/2 h and the “Enz.-act. Normal Plasma” value [1, 12] was 269 mA/2 h. For the same compound, the “Enz.-act. Normal Plasma” value [1, 13] was 304 mA/2 h, the “Enz.-act. Normal Plasma” value [1, 14] was 352 mA/2 h and the “Enz.-act. Normal Plasma” value [1, 15] was 390 mA/2 h. The “Enz.-act. Normal Plasma” value [1, 16] was 401 mA/2 h, the “Enz.-act. Normal Plasma” value [1, 17] was 428 mA/2 h and the “Enz.-act. Normal Plasma” value [1, 18] was 518 mA/2 h. For the same compound, the “Enz.-act. Normal Plasma” value [1, 19] was 623 mA/2 h, the “Enz.-act. Normal Plasma” value [1, 20] was 667 mA/2 h and the “Enz.-act. Normal Plasma” value [1, 21] was 744 mA/2 h. For the same compound, the “Enz.-act. Normal Plasma” value [1, 22] was 839 mA/2 h, the “Enz.-act. Normal Plasma” value [1, 23] was 950 mA/2 h and the “Enz.-act. Normal Plasma” value [1, 24] was 1024 mA/2 h. The “Enz.-act. Normal Plasma” value [1, 25] was 1159 mA/2 h, the “Enz.-act. Normal Plasma” value [1, 26] was 1295 mA/2 h and the “Enz.-act. Normal Plasma” value [1, 27] was 1420 mA/2 h. The “Enz.-act. Normal Plasma” value [1, 28] was 1552 mA/2 h, the “Enz.-act. Normal Plasma” value [1, 29] was >3000 mA/2 h and the “Enz.-act. Pathoplasma” value [2, 4] was 168 mA/2 h. The “Enz.-act. Pathoplasma” value [2, 5] was 276 mA/2 h, the “Enz.-act. Pathoplasma” value [2, 6] was 412 mA/2 h and the “Enz.-act. Pathoplasma” value [2, 7] was 506 mA/2 h. For the same compound, the “Enz.-act. Pathoplasma” value [2, 8] was 538 mA/2 h, the “Enz.-act. Pathoplasma” value [2, 9] was 580 mA/2 h and the “Enz.-act. Pathoplasma” value [2, 10] was 616 mA/2 h. For the same compound, the “Enz.-act. Pathoplasma” value [2, 11] was 669 mA/2 h, the “Enz.-act. Pathoplasma” value [2, 12] was 707 mA/2 h and the “Enz.-act. Pathoplasma” value [2, 13] was 767 mA/2 h. For the same compound, the “Enz.-act. Pathoplasma” value [2, 14] was 821 mA/2 h, the “Enz.-act. Pathoplasma” value [2, 15] was 868 mA/2 h and the “Enz.-act. Pathoplasma” value [2, 16] was 914 mA/2 h. The “Enz.-act. Pathoplasma” value [2, 17] was 928 mA/2 h, the “Enz.-act. Pathoplasma” value [2, 18] was 999 mA/2 h and the “Enz.-act. Pathoplasma” value [2, 19] was 1130 mA/2 h. The “Enz.-act. Pathoplasma” value [2, 20] was 1217 mA/2 h, the “Enz.-act. Pathoplasma” value [2, 21] was 1268 mA/2 h and the “Enz.-act. Pathoplasma” value [2, 22] was 1379 mA/2 h. The “Enz.-act. Pathoplasma” value [2, 23] was 1502 mA/2 h, the “Enz.-act. Pathoplasma” value [2, 24] was 1563 mA/2 h and the “Enz.-act. Pathoplasma” value [2, 25] was 1668 mA/2 h. The “Enz.-act. Pathoplasma” value [2, 26] was 1812 mA/2 h, the “Enz.-act. Pathoplasma” value [2, 27] was 1885 mA/2 h and the “Enz.-act. Pathoplasma” value [2, 28] was 2032 mA/2 h. For the same compound, the “Enz.-act. Pathoplasma” value [2, 29] was >3000 mA/2 h, the maximal enzyme velocity (bovine thrombin) was 800 mA/3 h and the “Max. Increase of Extinction” value [3, 4] was 234 mA. For the same compound, the “Max. Increase of Extinction” value [3, 5] was 468 mA, the “Max. Increase of Extinction” value [3, 6] was 702 mA and the “Max. Increase of Extinction” value [3, 7] was 935 mA. For the same compound, the “Max. Increase of Extinction” value [3, 8] was 1219 mA, the “Max. Increase of Extinction” value [3, 9] was 1435 mA and the “Max. Increase of Extinction” value [3, 10] was 1553 mA. The “Max. Increase of Extinction” value [3, 11] was 1720 mA, the “Max. Increase of Extinction” value [3, 12] was 1853 mA and the “Max. Increase of Extinction” value [3, 13] was 2048 mA. For the same compound, the “Max. Increase of Extinction” value [3, 14] was 2123 mA, the “Max. Increase of Extinction” value [3, 15] was 2184 mA and the “Max. Increase of Extinction” value [3, 16] was 2277 mA.
